# Experimental data taken from patent publication US10627412B2, “Periodontal-disease-specific peptide, and treatment and diagnosis of periodontal disease using same” (KAGOSHIMA UNIVERSITY, priority 2010, dated 2020).
# Test system: rat gingival epithelial cells (GEC)
# Assay: Mass spectrometry differential profiling of degradation products of gingival epithelial cells treated with purified gingipains
# Conditions: 37° C. 1 hr, MALDI-TOF
Sequence,Peak intensity ratio relative to control (enzyme-free group) (Kgp treatment),Peak intensity ratio relative to control (enzyme-free group) (RgpB treatment)
YEELQQTAGRHGDDLRNTK (listed as Homo sapiens) [peptide 2],14.9,
YEELQITAGRHGDDLRNTK (listed as Homo sapiens) [peptide 1],11.6,
TKVMDVHDGKVVSTHEQVLR + (O) [peptide 4],,23.5
TKVMDVHDGKVVSTHEQVLR (MOD_RES (4)..(4) Methionine residue may be oxidized.; listed as Homo sapiens) [peptide 3],,1.4
